The name of at least one read-out is uncertain.
Target: T1, Kluyveromyces lactis uricase KlUOX (wild type) (SEQ ID NO.1) (Kluyveromyces lactis, UniProt Q6CNP7)
T1 sequence (Q6CNP7 1-308): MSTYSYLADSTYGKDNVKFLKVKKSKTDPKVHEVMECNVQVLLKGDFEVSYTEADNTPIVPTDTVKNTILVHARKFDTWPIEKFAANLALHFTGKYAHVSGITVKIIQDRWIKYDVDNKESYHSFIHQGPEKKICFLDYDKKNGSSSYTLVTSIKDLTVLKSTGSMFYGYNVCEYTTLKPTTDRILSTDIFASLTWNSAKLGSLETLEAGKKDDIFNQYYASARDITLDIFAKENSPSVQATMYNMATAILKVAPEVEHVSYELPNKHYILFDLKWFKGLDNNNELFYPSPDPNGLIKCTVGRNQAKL
Test: Enzyme kinetic study of uricase (4-AAP/phenol/HRP colour assay, 505 nm)
Type: biochemical
Conditions: substrate uric acid; pH 7.0, 35°C; Table 5
Experimental: Enzymatic assay of uricase: Substrate mixture contains • a. 2.2 ml of 2 mM Uric acid • b. 0.15 ml of 60 mM 4-Aminoantipyrine (4-AAP) • c. 0.15 ml of 1.5% Phenol • d. 0.15 ml of 20 U/ml Horseradish peroxidase (HRP) • e. 0.1 M respective buffer to make up to 3 ml • a. Uricase added to the above mixture and incubated at 25°C for 20 min. The colour is measured at 505 nm (Chen, Wang et al. 2008). • b. The reaction mix was set for 300 µl rather than 3 ml for convenient measuring in BiotekPowerwave X Elisa plate reader. The amounts of the solutions added in the assay mix were calculated accordingly for 300 µl.
The kinetics of the uricases was studied to evaluate the efficiency of the enzymes. The kinetic parameters of the uricases of all the species were determined at their respective optimum pH and optimum temperatures. The substrate (uric acid) was added in increasing concentrations ranging from 10 to 600 µM (10, 20, 40, 80, 100, 200, 300, 400, 500, and 600) in triplicates. […] Equal amounts of enzyme were added and immediately readings were taken at 505 nm. Around 30 readings were taken at the interval of 1min. The readings at a particular time point were taken for further steady state kinetic study of uricases. The KM and Vmax values were determined from Michaelis-Menten saturation curve by the non-linear curve fit (ORIGIN 7.5). kcat and kcat/KM values were also calculated (table 5). […]

O=c1[nH]c(=O)c2[nH]c(=O)[nH]c2[nH]1 [uric acid]
Kcat/Km: 0.29 µM⁻¹ min⁻¹

— patent publication EP2986720B1, “URICASE MUTANTS” (Council of Scientific & Industrial Research, priority 2013, dated 2014)
